Where a name gives a salt, the structure may show the parent alone. The list shows a part of the results. Hit calls seldom repeat between salt and free forms of one compound.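 Kinases were expressed as nanoluciferase fusions in K562 cells and luminescence was read every 4 h between 2 and 18 h as percent of control, DMSO set to 100% and a positive control to 0%. A time point counts as decreased when the signal drops significantly (2 sigma). The hit call is the authors' own, does not follow from the count of time points alone, and its rule is not shown.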
Biological target: CSNK1D (UniProt P48730)
Test: number of time points (of 5) at which kinase-Nluc abundance scored as decreased, DMSO-normalised (count); higher = more persistent destabilization
Conditions: K562; 2-18 h

Chains of the proteins cited; added tags and fusions are not shown. Lines headed by an entry give the natural chain unless they say otherwise; changes in a name come on top.
UniProt P48730: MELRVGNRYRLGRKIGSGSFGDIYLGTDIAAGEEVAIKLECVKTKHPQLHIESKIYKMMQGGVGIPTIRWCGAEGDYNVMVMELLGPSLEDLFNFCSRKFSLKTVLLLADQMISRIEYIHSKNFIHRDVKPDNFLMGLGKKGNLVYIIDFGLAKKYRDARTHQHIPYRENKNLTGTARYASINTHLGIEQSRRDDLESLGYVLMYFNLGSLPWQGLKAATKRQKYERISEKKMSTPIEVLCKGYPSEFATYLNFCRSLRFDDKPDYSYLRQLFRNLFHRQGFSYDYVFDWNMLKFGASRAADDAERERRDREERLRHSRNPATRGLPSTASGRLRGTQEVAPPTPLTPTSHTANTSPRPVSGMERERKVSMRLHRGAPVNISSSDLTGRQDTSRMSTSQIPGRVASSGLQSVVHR

Compound	number of time points
COc1cc(S(C)(=O)=O)ccc1Nc1nc2ccc(-c3ccc(NC(=O)[C@H](C)c4ccc(F)cc4)cc3)cn2n1 [Empesertib] (10 µM)	0
CO[C@H]1C[C@@H]2CC[C@@H](C)[C@@](O)(O2)C(=O)C(=O)N2CCCC[C@H]2C(=O)O[C@H]([C@H](C)C[C@@H]2CC[C@@H](O)[C@H](OC)C2)CC(=O)[C@H](C)/C=C(\C)[C@@H](O)[C@@H](OC)C(=O)[C@H](C)C[C@H](C)/C=C/C=C/C=C/1C [Rapamycin] (10 µM)	0
COc1ccc(Cl)cc1NC(=O)Nc1cc(C)nc2ccccc12 (2.5 µM)	0
CNc1nc(Nc2cnn(C3CCN(C4COC4)CC3F)c2Cl)ncc1C(F)(F)F (stereo not given) (10 µM)	0
Cc1ccc2nc(NC(=O)CSc3nc4c(c(=O)n3-c3ccccc3)SCC4)sc2c1 (2 µM)	0
Cc1noc(C)c1-c1ccc(-c2cc(C(N)=O)c(NC(N)=O)s2)c(O[C@H]2CCNC2)c1 (10 µM)	0
Fc1ccc(-c2nc(-c3c(F)cccc3F)[nH]c2-c2ccncc2)cc1 (10 µM)	0
C=CC(=O)Nc1ccc(CN(C(=O)Nc2c(Cl)c(OC)cc(OC)c2Cl)c2cc(Nc3ccc(N4CCN(C)CC4)cc3)ncn2)cc1 (10 µM)	0
CCN(CC)c1ccc2cc(C(=O)N3CCN(C(=O)C4=Cc5c(Br)cccc5S4(=O)=O)CC3)c(=O)oc2c1 (2 µM)	0
CN1CCN(c2ccc(Nc3ncc4nc(Nc5ccccc5)n([C@@H]5CCN(S(=O)(=O)C6CC6)C5)c4n3)cc2)CC1 (2.5 µM)	0
COCCOc1ccc(-c2cn(-c3ccccc3)c3nc[nH]c(=O)c23)cc1 (10 µM)	0
CC(C)CC1(O)CCN(C(=O)c2ccc(NS(=O)(=O)c3cccc4nccnc34)cc2)CC1 (10 µM)	0
Cc1cc(Nc2cc(Cl)nc(Oc3ccc([N+](=O)[O-])cc3)n2)n[nH]1 [Autophinib] (2.5 µM)	0
O=C(NCCO)c1ccc2c(c1)nc(Nc1cccc(Cl)c1)c1ccncc12 [CK2 inhibitor 2] (10 µM)	0
COc1ccc(C2CC(c3ccccc3)=NN2c2ccc(S(N)(=O)=O)cc2)cc1 (stereo not given) (10 µM)	0
C[C@@H]1O[C@@H](O[C@H]2[C@H](Oc3cc(O)c4c(=O)cc(-c5ccc(O)cc5)oc4c3)O[C@H](CO)[C@@H](O)[C@@H]2O)[C@H](O)[C@H](O)[C@H]1O [Rhoifolin] (10 µM)	0
O=[N+]([O-])c1cc(C(F)(F)F)cc([N+](=O)[O-])c1NNC(=S)Nc1ccc(F)cc1 (10 µM)	0
CCc1cc(O)c(F)cc1-c1ccc2c(-c3nc4c([nH]3)CN(C3CCN(C)CC3)CC4)n[nH]c2c1 [JAK-IN-5 (hydrochloride)] (2 µM)	0
O=C(Nc1cccnc1)c1cc(C(=O)c2c(F)cccc2Br)c[nH]1 (10 µM)	0
COc1ccc2c(c1O)OC(C)(C)c1c-2ccc2c1C(=O)N(c1ccc(C(=O)c3ccccc3)cc1)C2=O [Ampkinone] (10 µM)	0
CC1CCc2nc(N)c(C#N)c(-c3cccnc3)c2C1 (stereo not given) (10 µM)	0
COc1cc(F)c(F)c(Nc2ccc(I)cc2F)c1NS(=O)(=O)C1(C[C@H](O)CO)CC1 [Refametinib] (10 µM)	1
Cn1nccc1Nc1nccc(-c2cc3c(s2)C(C)(C)N(CCN2CCOCC2)C3=O)n1 (10 µM)	0
Cc1ccc(-c2c(C(=O)CCl)n(CCCO)c3ncnc(N)c23)cc1 (10 µM)	0
N[C@H](Cc1c[nH]c2ccccc12)C(=O)N/N=C/c1ccc2nccnc2c1 [Rhosin (hydrochloride)] (10 µM)	0
CNCc1ccccc1-c1csc([C@@H](C)Nc2nc(C)nc3cc(OC)c(OC)cc23)c1 (2.5 µM)	0
Cn1cnc(-c2cc3nccc(Oc4ccc(NC(=S)NC(=O)Cc5ccccc5)cc4F)c3s2)c1 [MGCD-265 analog] (10 µM)	0
C=C1C(=O)O[C@@H]2C[C@@]3(C)CCC[C@H](C)C3=C[C@H]12 [Alantolactone] (10 µM)	0
O=C(Nc1ccc(F)cc1F)[C@H](NC(=S)Nc1cc(C(F)(F)F)cc(C(F)(F)F)c1)c1ccccc1 (2.5 µM)	0
Fc1ccc(-c2nc(-c3ccccc3F)[nH]c2-c2ccncc2)cc1 (2.5 µM)	0

Quoted at random: two records from the list, in no set order.
Compound	number of time points
COc1ccc(Cl)cc1NC(=O)Nc1cc(C)nc2ccccc12 (2.5 µM)	0
Cn1cnc(-c2cc3nccc(Oc4ccc(NC(=S)NC(=O)Cc5ccccc5)cc4F)c3s2)c1 [MGCD-265 analog] (10 µM)	0
